{"source": "PubChem BioAssay AID686937 (Drosophila RNAi Screening Center, 2013)", "test": "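Genes in the fly needed for secretion of protein constitutively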 (primary screen)", "cell system": "Drosophila S2 cells expressing secreted horseradish peroxidase", "reagent": "long dsRNA against Drosophila genes", "time to read-out": "about 5.5 days (5 days dsRNA, then 12 h reporter induction)", "treatment": "reporter expression induced after 5 days of dsRNA, read 12 h later; inducer not stated", "detection": "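Chemiluminescent measurement of peroxidase in the medium 12 h after reporter induction, following 5 days of dsRNA, given as a z-score per plate; higher means more secretion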", "reading the numbers": "z-score: higher = more reporter secreted into medium", "note": "The screen tested about 23,000 reagents; below is an unselected part of those with a known target gene and a result. 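Reduced-secretion tags in replicate 1 do not always agree with the z-scores; no criterion for assigning the tags was given.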 A plus sign joins genes that one reagent is predicted to hit. Further read-outs or replicates are left out here. The record does not give: the amount of reagent."}
{"predicted target":"lncRNA:CR32661 + lncRNA:CR43157","DRSC id":"DRSC19794","z-score, replicate 1":0.27}
{"predicted target":"ND-49 (NADH dehydrogenase (ubiquinone) 49 kDa subunit)","DRSC id":"DRSC17151","z-score, replicate 1":0.33}
{"predicted target":"CG13288","DRSC id":"DRSC09962","z-score, replicate 1":0.41}
{"predicted target":"Cht4 (Chitinase 4)","DRSC id":"DRSC04603","z-score, replicate 1":0.2}
{"predicted target":"RtGEF (Rho-type guanine nucleotide exchange factor)","DRSC id":"DRSC03604","z-score, replicate 1":0.35}
{"predicted target":"RtGEF (Rho-type guanine nucleotide exchange factor)","DRSC id":"DRSC22207","z-score, replicate 1":0.53}
{"predicted target":"CG14947","DRSC id":"DRSC02429","z-score, replicate 1":0.38}
{"predicted target":"CG12655","DRSC id":"DRSC20678","z-score, replicate 1":0.42}
{"predicted target":"CG14903","DRSC id":"DRSC15024","z-score, replicate 1":0.15}
{"predicted target":"raw","DRSC id":"DRSC03599","z-score, replicate 1":0.27}
{"predicted target":"raw","DRSC id":"DRSC03600","z-score, replicate 1":-0.06}
{"predicted target":"CNT1 (Concentrative nucleoside transporter 1)","DRSC id":"DRSC06082","z-score, replicate 1":0.31}
{"predicted target":"Tsp42Ek (Tetraspanin 42Ek)","DRSC id":"DRSC06187","z-score, replicate 1":0.31}
{"predicted target":"Karl","DRSC id":"DRSC19883","z-score, replicate 1":-0.18}
{"predicted target":"CG34199","DRSC id":"DRSC05867","z-score, replicate 1":0.14}

The list goes on, starting with the last 2 of the part before.
{"predicted target":"Karl","DRSC id":"DRSC19883","z-score, replicate 1":-0.18}
{"predicted target":"CG34199","DRSC id":"DRSC05867","z-score, replicate 1":0.14}
{"predicted target":"Rpp30 (RNaseP protein p30)","DRSC id":"DRSC00320","z-score, replicate 1":-0.09}
{"predicted target":"CG32483","DRSC id":"DRSC07902","z-score, replicate 1":0.46}
{"predicted target":"CG7702","DRSC id":"DRSC16293","z-score, replicate 1":0.26}
{"predicted target":"Vm34Ca (Vitelline membrane 34Ca)","DRSC id":"DRSC03475","z-score, replicate 1":-0.65}
{"predicted target":"CG31624","DRSC id":"DRSC02617","z-score, replicate 1":0.4}
{"predicted target":"Kaz (Katazuke)","DRSC id":"DRSC14637","z-score, replicate 1":0.46}
{"predicted target":"Nse4 (Non-SMC element 4)","DRSC id":"DRSC02239","z-score, replicate 1":-0.53}
{"predicted target":"rad (retired record)","DRSC id":"DRSC18966","z-score, replicate 1":-0.09}
{"predicted target":"rad (retired record)","DRSC id":"DRSC19687","z-score, replicate 1":0.37}
{"predicted target":"rad (retired record)","DRSC id":"DRSC19816","z-score, replicate 1":0.07}
{"predicted target":"rad (retired record)","DRSC id":"DRSC22865","z-score, replicate 1":1.28}
{"predicted target":"Gs2 (Glutamine synthetase 2)","DRSC id":"DRSC20250","z-score, replicate 1":0.5}
